The list shows a part of the results.
Columns and labels:
Experiment in all cases: log2 fold change, soluble protein after heating vs DMSO (PISA); higher = thermal stabilisation; K562 cells, 10 uM, 30 min; active = over 0.2 and 3.5 SD of the protein, either way, in both replicates (recomputed)
[1] = compound: CC1=C(C=C(C=C1)NC(=O)C2=CC(=CC=C2)C(C)(C)C#N)NC3=CC4=C(C=C3)N=CN(C4=O)C
How it was run: (§1)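 K562 cells at 2×10^6 cells/mL were treated with 10 μM compound for 30 min. Aliquots were heated for 3 min across 48°C-58°C, pooled, and extracted in PBS with 0.5% NP-40 at 4°C; soluble protein was the supernatant after 21,000xg for 90 min. Soluble protein was quantified by TMTpro 16plex LC-MS/MS with channel sums equalised, and reported as log2 fold change in thermal stability against DMSO controls, with values from duplicates.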

The chains behind the UniProt entries cited, without tags or fusion partners. Where a name states a change or a piece, a line headed by the entry shows the natural chain unless it says otherwise.
UniProt Q15843, whole entry, looked up: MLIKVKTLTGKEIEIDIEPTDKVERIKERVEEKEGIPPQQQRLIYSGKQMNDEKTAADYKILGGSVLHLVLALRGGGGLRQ
NA, A0A494C071, UniProt A0A494C071, whole entry, looked up: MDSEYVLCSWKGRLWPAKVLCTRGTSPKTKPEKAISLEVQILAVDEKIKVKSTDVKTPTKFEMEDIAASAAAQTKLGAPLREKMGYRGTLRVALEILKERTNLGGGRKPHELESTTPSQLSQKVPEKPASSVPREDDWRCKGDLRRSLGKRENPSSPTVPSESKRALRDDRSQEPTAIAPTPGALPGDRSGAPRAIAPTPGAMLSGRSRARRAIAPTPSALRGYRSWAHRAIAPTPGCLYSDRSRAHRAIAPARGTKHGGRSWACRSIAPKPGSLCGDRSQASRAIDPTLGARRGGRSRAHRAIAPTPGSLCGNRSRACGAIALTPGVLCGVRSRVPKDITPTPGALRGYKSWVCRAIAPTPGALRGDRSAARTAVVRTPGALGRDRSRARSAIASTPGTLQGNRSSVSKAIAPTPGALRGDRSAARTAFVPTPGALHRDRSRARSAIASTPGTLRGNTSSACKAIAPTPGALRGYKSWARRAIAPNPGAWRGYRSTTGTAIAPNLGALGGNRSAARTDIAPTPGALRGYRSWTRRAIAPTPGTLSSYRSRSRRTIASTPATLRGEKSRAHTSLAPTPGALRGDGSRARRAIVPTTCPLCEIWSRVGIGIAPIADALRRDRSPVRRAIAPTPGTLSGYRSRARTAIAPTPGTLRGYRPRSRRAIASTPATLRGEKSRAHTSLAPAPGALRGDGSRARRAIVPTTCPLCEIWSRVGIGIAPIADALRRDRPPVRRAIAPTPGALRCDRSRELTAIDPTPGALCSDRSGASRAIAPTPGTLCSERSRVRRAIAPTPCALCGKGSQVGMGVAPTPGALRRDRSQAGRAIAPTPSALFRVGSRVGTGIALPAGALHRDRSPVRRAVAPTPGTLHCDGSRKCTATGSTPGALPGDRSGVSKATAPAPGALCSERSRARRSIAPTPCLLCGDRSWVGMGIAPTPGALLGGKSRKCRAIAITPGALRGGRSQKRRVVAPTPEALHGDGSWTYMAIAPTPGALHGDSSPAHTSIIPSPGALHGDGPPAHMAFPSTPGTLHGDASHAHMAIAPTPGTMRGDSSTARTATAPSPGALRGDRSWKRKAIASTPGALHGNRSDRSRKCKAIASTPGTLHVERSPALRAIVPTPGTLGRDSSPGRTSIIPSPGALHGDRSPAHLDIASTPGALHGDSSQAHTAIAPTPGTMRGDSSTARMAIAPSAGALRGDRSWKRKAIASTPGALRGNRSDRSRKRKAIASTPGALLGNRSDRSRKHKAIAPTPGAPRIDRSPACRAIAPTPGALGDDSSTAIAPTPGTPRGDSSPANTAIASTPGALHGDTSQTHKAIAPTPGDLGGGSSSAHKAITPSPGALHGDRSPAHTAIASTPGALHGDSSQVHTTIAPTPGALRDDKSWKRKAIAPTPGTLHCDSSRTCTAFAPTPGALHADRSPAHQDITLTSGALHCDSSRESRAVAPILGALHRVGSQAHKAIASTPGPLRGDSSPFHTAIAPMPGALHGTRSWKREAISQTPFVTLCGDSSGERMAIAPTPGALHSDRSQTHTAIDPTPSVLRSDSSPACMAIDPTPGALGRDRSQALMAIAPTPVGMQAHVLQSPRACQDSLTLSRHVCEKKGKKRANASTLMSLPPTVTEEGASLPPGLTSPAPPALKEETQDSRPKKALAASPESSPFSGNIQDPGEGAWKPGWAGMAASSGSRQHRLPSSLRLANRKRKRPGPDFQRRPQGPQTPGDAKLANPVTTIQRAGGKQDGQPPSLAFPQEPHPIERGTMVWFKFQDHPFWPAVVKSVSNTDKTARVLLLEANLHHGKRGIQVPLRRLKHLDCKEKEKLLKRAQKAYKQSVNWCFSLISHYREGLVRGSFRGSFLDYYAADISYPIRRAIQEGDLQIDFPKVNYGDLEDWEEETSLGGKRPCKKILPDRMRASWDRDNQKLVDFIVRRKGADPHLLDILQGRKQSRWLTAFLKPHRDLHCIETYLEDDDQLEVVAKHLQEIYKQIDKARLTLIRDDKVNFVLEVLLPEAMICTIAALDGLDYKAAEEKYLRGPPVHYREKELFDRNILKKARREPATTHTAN
UniProt Q6ZNJ1: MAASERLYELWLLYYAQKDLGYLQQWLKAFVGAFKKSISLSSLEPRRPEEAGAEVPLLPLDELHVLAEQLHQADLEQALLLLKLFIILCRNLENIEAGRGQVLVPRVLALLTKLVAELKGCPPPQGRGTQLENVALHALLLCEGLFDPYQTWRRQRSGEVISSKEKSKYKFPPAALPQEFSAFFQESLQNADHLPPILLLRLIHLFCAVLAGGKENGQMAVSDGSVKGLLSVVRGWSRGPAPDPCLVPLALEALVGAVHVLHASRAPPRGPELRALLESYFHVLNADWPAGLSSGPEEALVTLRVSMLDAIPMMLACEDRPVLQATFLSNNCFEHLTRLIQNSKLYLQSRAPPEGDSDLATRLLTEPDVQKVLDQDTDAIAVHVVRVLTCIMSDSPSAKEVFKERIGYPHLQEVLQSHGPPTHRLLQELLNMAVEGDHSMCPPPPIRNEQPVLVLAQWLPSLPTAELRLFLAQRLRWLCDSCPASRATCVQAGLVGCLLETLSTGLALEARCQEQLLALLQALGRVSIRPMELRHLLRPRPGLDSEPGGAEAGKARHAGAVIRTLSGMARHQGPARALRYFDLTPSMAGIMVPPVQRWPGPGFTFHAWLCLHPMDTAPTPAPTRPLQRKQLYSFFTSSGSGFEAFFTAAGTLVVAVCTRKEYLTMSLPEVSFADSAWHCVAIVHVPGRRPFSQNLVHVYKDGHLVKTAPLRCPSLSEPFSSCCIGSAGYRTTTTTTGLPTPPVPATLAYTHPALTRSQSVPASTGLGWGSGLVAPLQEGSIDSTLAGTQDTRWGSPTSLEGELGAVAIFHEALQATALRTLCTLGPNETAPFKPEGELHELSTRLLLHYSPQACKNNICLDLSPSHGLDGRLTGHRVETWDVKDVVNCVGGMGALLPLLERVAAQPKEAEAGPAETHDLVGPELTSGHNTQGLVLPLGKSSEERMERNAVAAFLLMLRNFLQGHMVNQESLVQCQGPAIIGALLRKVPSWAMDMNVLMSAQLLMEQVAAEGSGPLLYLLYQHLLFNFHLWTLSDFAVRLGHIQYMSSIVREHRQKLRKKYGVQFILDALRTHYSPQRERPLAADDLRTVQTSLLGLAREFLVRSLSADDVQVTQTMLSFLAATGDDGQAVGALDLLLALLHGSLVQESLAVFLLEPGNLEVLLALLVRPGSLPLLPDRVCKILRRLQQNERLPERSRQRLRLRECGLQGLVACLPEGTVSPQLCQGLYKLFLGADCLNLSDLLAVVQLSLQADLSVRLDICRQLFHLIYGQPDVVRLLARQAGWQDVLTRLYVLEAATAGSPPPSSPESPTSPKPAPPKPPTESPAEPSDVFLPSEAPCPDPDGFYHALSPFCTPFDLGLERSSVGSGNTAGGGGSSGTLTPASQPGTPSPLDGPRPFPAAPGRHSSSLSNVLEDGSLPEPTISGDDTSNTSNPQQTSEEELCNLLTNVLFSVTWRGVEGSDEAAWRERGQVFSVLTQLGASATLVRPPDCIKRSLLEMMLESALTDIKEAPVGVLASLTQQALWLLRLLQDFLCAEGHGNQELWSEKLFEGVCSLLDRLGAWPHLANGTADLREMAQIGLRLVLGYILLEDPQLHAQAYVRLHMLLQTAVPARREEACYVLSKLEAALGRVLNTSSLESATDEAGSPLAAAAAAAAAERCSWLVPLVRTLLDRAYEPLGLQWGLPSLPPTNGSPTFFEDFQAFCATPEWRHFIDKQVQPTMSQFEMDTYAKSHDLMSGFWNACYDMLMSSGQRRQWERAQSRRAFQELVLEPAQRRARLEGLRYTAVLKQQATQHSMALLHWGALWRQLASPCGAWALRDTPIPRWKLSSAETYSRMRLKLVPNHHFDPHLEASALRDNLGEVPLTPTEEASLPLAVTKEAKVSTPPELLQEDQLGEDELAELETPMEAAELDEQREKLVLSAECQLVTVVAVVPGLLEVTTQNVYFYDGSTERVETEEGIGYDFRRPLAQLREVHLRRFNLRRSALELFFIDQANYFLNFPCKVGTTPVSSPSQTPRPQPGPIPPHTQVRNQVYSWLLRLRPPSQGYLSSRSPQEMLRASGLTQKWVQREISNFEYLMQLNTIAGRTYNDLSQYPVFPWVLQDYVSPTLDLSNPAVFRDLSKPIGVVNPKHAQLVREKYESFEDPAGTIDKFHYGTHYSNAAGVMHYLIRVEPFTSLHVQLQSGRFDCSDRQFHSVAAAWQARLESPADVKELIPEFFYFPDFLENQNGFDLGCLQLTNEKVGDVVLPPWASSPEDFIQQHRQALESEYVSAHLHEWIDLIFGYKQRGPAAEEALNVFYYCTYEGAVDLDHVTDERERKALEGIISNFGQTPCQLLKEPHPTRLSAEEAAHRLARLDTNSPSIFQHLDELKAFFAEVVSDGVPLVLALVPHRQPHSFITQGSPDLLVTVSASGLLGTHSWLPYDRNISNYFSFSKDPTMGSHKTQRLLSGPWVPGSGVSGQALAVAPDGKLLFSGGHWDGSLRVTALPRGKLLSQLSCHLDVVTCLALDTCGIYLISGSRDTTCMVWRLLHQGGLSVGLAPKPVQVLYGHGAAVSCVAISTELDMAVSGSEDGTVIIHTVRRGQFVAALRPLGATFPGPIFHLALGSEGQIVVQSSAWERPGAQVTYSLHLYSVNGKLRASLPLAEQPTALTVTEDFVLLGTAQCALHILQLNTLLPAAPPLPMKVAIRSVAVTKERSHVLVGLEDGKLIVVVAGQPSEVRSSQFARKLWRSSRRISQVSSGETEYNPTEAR
UniProt Q92597: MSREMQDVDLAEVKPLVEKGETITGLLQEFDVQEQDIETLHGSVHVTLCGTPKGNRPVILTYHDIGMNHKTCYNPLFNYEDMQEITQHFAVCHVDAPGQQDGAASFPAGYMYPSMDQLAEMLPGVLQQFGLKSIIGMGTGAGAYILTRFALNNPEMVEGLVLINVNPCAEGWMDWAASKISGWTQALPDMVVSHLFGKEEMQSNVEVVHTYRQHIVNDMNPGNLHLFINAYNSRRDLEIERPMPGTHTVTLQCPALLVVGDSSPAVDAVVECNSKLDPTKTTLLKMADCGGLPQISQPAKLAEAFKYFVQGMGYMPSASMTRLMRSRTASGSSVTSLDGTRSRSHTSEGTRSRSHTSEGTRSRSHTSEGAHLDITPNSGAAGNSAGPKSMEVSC
UniProt Q9UK23: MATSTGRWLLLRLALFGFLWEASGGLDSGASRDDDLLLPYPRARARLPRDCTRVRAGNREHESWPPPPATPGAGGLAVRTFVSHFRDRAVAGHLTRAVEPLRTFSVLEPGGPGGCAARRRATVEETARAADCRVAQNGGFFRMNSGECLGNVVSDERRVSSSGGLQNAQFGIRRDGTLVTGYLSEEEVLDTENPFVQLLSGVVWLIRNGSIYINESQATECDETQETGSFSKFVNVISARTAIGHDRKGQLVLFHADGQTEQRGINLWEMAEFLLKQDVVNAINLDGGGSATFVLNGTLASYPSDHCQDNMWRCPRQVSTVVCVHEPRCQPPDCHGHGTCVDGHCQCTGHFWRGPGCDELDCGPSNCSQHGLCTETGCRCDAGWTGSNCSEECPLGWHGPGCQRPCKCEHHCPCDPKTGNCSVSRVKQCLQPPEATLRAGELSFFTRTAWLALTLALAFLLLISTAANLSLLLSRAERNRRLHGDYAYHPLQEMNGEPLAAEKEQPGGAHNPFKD
UniProt P49321, whole entry, looked up: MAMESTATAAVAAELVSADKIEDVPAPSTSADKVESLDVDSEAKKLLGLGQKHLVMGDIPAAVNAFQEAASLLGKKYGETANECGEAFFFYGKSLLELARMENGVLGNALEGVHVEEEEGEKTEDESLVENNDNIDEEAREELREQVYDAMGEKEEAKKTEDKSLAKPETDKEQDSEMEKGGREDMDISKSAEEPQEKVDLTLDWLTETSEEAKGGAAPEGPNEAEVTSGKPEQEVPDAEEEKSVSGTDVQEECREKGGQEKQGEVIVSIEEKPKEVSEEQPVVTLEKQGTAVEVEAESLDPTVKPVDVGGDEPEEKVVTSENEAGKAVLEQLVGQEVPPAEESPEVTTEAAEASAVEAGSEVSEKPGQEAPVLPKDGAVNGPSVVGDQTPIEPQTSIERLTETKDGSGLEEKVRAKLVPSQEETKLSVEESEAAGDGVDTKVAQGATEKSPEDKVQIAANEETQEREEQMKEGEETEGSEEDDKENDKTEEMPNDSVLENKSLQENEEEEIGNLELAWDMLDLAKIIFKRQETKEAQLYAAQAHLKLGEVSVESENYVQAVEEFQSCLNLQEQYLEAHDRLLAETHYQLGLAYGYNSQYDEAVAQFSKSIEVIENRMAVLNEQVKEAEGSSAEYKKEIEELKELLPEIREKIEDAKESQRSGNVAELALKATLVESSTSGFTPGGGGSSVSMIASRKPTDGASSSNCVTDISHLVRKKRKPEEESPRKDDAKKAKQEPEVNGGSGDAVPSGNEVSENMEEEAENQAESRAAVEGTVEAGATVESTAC

[2] = compound: CC1=C(C=C(C=C1)NC(=O)C2=CC(=CC=C2)N(C)C)NC(=O)C3=CC=C(C=C3)O
How it was run: as §1

[3] = compound: CC1=CC=C(C=C1)SC2=C3C=C(SC3=CN=C2)C(=O)N
How it was run: as §1

[4] = compound: CC1=NC(=CC=C1)C2=C(N=C(N2)C(C)(C)C)C3=CC4=NC=CN=C4C=C3
How it was run: as §1

Nexturastat A = compound: CCCCN(Cc1ccc(C(=O)NO)cc1)C(=O)Nc1ccccc1 [Nexturastat A]
How it was run: as §1

vemurafenib = compound: CCCS(=O)(=O)Nc1ccc(F)c(C(=O)c2c[nH]c3ncc(-c4ccc(Cl)cc4)cc23)c1F [vemurafenib]
How it was run: as §1

[5] = compound: CCCS(=O)(=O)Nc1ccc(F)c(C(=O)c2c[nH]c3ncc(Cl)cc23)c1F
How it was run: as §1

[6] = compound: CCCc1cc(C)[nH]c(=O)c1CNC(=O)c1cc(-c2ccnc(N3CCN(C)CC3)c2)cc2c1cnn2C(C)C
How it was run: as §1

givinostat = compound: CCN(CC)Cc1ccc2cc(COC(=O)Nc3ccc(C(=O)NO)cc3)ccc2c1 [givinostat]
How it was run: as §1

barasertib = compound: CCN(CCCOc1ccc2c(Nc3cc(CC(=O)Nc4cccc(F)c4)[nH]n3)ncnc2c1)CCOP(=O)(O)O [barasertib]
How it was run: as §1

Measured: log2 fold change

NDOR1 isoform 2 (UniProt Q9UHB4)
inactive: [1] -0.032 | [2] 0.037 | [3] -0.018 | [4] 0.017 | Nexturastat A -0.077 | vemurafenib -0.023 | [5] 0.094 | [6] -0.059 | givinostat 0.032 | barasertib 0.021

NAMPT (UniProt C9JF35)
inactive: [1] -0.029 | [2] -0.068 | [3] -0.072 | [4] 0.027 | Nexturastat A -0.031 | [5] -0.082 | [6] -0.337 | givinostat -0.052 | barasertib -0.092

NEFH (UniProt P12036)
inactive: [1] -0.032 | [2] -0.038 | [3] 0.019 | [4] -0.15 | Nexturastat A 0.331 | vemurafenib -0.031 | [5] -0.073 | [6] 0.046 | givinostat 0.043 | barasertib -0.087

NECAP2 (UniProt Q9NVZ3)
inactive: [1] 0.073 | [2] -0.019 | [3] 0.056 | [4] 0.019 | Nexturastat A -0.066 | vemurafenib -0.002 | [5] 0.042 | [6] -0.009 | givinostat 0.039 | barasertib 0.004

Two neighbouring entries already listed, quoted:
NDOR1 isoform 2 (UniProt Q9UHB4)
inactive: [1] -0.032 | [2] 0.037 | [3] -0.018 | [4] 0.017 | Nexturastat A -0.077 | vemurafenib -0.023 | [5] 0.094 | [6] -0.059 | givinostat 0.032 | barasertib 0.021

NAMPT (UniProt C9JF35)
inactive: [1] -0.029 | [2] -0.068 | [3] -0.072 | [4] 0.027 | Nexturastat A -0.031 | [5] -0.082 | [6] -0.337 | givinostat -0.052 | barasertib -0.092

Further results:

NCR3LG1 (UniProt Q68D85)
inactive: [1] -0.044 | [2] -0.017 | [3] -0.073 | [4] 0.025 | Nexturastat A 0.011 | vemurafenib -0.016 | [5] -0.12 | [6] 0.012 | givinostat 0.027 | barasertib -0.024

NEDD8 (UniProt Q15843)
inactive: [1] -0.033 | [2] -0.061 | [3] -0.006 | [4] 0.032 | Nexturastat A -0.029 | vemurafenib 0 | [5] -0.056 | [6] -0.004 | givinostat 0.026 | barasertib 0.043

NAA15 (UniProt Q9BXJ9)
inactive: [1] 0.01 | [2] 0.027 | [3] 0.028 | [4] 0.055 | Nexturastat A -0.047 | vemurafenib 0.023 | [5] 0.027 | [6] 0.045 | givinostat -0.021 | barasertib 0.026

NDUFAF6 (UniProt Q330K2)
inactive: [1] 0.055 | [2] 0.068 | [3] 0.169 | [4] 0.024 | Nexturastat A -0.052 | vemurafenib -0.055 | [5] 0.035 | [6] -0.088 | givinostat -0.063 | barasertib -0.01

NCBP2AS2 (UniProt Q69YL0)
inactive: [1] 0.069 | [2] 0.017 | [3] 0.162 | vemurafenib -0.039 | [5] 0.037 | [6] -0.096 | givinostat -0.146 | barasertib 0.072

NCLN (UniProt Q969V3)
inactive: [1] 0.011 | [2] -0.011 | [3] -0.042 | [4] -0.015 | Nexturastat A -0.004 | vemurafenib -0.027 | [5] 0.005 | [6] 0.023 | givinostat 0.016 | barasertib 0.018

NDUFC2 (UniProt O95298)
inactive: [1] 0.014 | [2] -0.037 | [3] 0.014 | [4] 0.201 | Nexturastat A 0.001 | vemurafenib -0.043 | [5] -0.047 | [6] -0.092 | givinostat -0.058 | barasertib 0.012

NDUFS3 (UniProt O75489)
inactive: [1] 0.017 | [2] 0.022 | [3] -0.003 | [4] 0.005 | Nexturastat A -0.051 | vemurafenib 0.02 | [5] 0.009 | [6] 0.033 | givinostat -0.014 | barasertib -0.005

MZT2B (UniProt Q6NZ67)
inactive: [1] 0.059 | [2] -0.546 | [3] -0.111 | [4] 0.022 | Nexturastat A -0.074 | vemurafenib 0.072 | [5] -0.096 | [6] 0 | givinostat 0.025 | barasertib 0.006

NA, A0A2R8Y3M9
inactive: [1] -0.126 | [2] 0.546 | [3] 0.225 | [4] 0.178 | [5] -0.086 | barasertib -0.138

NDUFA3 (UniProt O95167)
inactive: [1] -0.033 | [2] 0.019 | [3] 0.046 | Nexturastat A 0.022 | vemurafenib -0.069 | [5] -0.02 | [6] -0.033 | givinostat -0.069 | barasertib 0.026

NAXE (UniProt Q8NCW5)
inactive: [1] 0.01 | [2] -0.015 | [3] 0.049 | [4] 0.003 | Nexturastat A -0.024 | vemurafenib 0.009 | [5] -0.025 | [6] -0.025 | givinostat -0.04 | barasertib 0.007

NAIP (UniProt Q13075)
inactive: [2] 0.019 | [3] -0.419 | [4] -0.306 | [5] -0.562 | givinostat 0.142

NEB isoform 3 (UniProt P20929)
inactive: [2] -0.077 | Nexturastat A 0.245 | vemurafenib -0.11 | givinostat 0.011 | barasertib 0.124

NA, A0A494C071
inactive: [4] 0.011 | Nexturastat A -0.081 | vemurafenib -0.142 | [6] -0.159 | barasertib 0.043

NCKIPSD (UniProt Q9NZQ3)
inactive: [2] 0.006 | [3] 0.076 | vemurafenib 0.106 | [5] 0.119 | givinostat 0.288

NANP (UniProt Q8TBE9)
inactive: [1] 0.021 | [3] 0.005 | Nexturastat A -0.035 | vemurafenib -0.017 | [5] -0.06 | [6] -0.084 | givinostat -0.019 | barasertib 0.04

NBEAL2 (UniProt Q6ZNJ1)
inactive: [2] 0.04 | [4] -0.274 | [6] -0.035 | givinostat 0.211

NDEL1 isoform 2 (UniProt Q9GZM8)
inactive: [2] 0.018 | [3] 0.041 | Nexturastat A 0.052 | vemurafenib -0.014 | [5] -0.011 | [6] -0.099 | givinostat -0.029 | barasertib 0.059

NAA40 (UniProt Q86UY6)
inactive: [2] 0.063 | [4] -0.063 | Nexturastat A 0.157 | vemurafenib -0.037

NEK1 isoform 3 (UniProt Q96PY6)
inactive: [2] -0.011 | [4] -0.072 | vemurafenib 0.073 | givinostat 0.049

NCAPH2 isoform 4 (UniProt Q6IBW4)
inactive: [4] 0.036 | Nexturastat A 0.155 | [6] 0.119 | givinostat 0.091

NBDY, A0A0U1RRE5
inactive: [2] 0.112 | [3] -0.262 | Nexturastat A 0.094 | [5] -0.026 | [6] -0.005 | givinostat 0 | barasertib 0.047

NDUFAB1 (UniProt O14561)
inactive: [1] 0.03 | [2] -0.08 | [4] 0.049 | Nexturastat A -0.094 | vemurafenib 0.233 | [6] 0.005 | givinostat -0.006 | barasertib -0.005

NDRG1 (UniProt Q92597)
inactive: [3] 0.093 | [5] 0.015 | givinostat 0.041

NAP1L4 (UniProt C9J6D1)
inactive: [1] -0.258 | [4] -0.243

NA (UniProt B2RBV5)
inactive: [1] -0.022 | [3] -0.245 | Nexturastat A 0.292 | [5] 0.005 | [6] 0.021 | barasertib 0.002

NDRG2 (UniProt G3V392)
inactive: [1] -0.04 | [3] 0.183 | [4] -0.216 | Nexturastat A -0.114 | [5] -0.248 | [6] 0.02 | barasertib 0.134

NCKAP5L (UniProt Q9HCH0)
inactive: [2] 0.011 | [3] 0.006 | [4] 0.161 | vemurafenib -0.112 | [5] 0.366 | [6] -0.165

Two entries picked at random from the list so far:
NDRG1 (UniProt Q92597)
inactive: [3] 0.093 | [5] 0.015 | givinostat 0.041

NA (UniProt B2RBV5)
inactive: [1] -0.022 | [3] -0.245 | Nexturastat A 0.292 | [5] 0.005 | [6] 0.021 | barasertib 0.002

The list goes on.

NDST1 (UniProt P52848)
inactive: [1] 0.048 | [3] -0.048 | [4] 0.001 | Nexturastat A 0.005 | vemurafenib -0.101 | [5] 0.012 | [6] 0.091 | givinostat 0.046 | barasertib -0.091

NAP1L1 (UniProt B7Z9C2)
inactive: [4] 0.14 | vemurafenib -0.304 | [6] -0.109 | givinostat -0.053 | barasertib -0.002

NA, A0A1W2PSA9
inactive: [2] 0.108

NAGPA (UniProt Q9UK23)
inactive: [1] -0.028 | [3] -0.004 | [4] 0.054 | Nexturastat A -0.131 | [5] -0.067 | [6] -0.066 | givinostat 0.002 | barasertib -0.133

NCOA4 isoform 4 (UniProt Q13772)
inactive: [2] 0.116

NDUFA7 (UniProt M0R0N0)
inactive: [1] -0.011 | vemurafenib -0.195 | givinostat 0.104 | barasertib 0.052

NDFIP1 (UniProt Q9BT67)
inactive: [1] -0.366 | [2] -0.125 | [4] -0.1 | Nexturastat A 0.048 | vemurafenib 0.268 | [6] -0.15 | givinostat -0.046 | barasertib -0.011

NDUFC1 (UniProt O43677)
inactive: Nexturastat A -0.171 | givinostat -0.004

NASP isoform 2 (UniProt P49321)
inactive: [6] 1.06

NDUFB1 (UniProt O75438)
inactive: [1] -0.087 | [3] -0.08 | [4] 0.067 | Nexturastat A 0.027 | vemurafenib -0.001 | [5] 0.065 | [6] 0.025 | givinostat -0.015 | barasertib -0.009

NDRG2 (UniProt G3V2A6)
inactive: givinostat 0.11

MYSM1 (UniProt Q5VVJ2)
inactive: [1] 0.067 | [2] -0.298 | [4] 0.006 | barasertib -0.114

NECTIN2 isoform 2 (UniProt Q92692)
inactive: [1] -0.037 | [2] 0.011 | [4] -0.104 | Nexturastat A 0.17 | vemurafenib 0.033 | [6] -0.028 | givinostat 0.054 | barasertib 0.005

NATD1 (UniProt Q8N6N6)
inactive: [3] -0.141 | [5] 0.146 | [6] -0.148

NDUFV1 (UniProt E9PJL9)
inactive: [1] 0.258 | [3] 0.051 | [4] 0.089 | vemurafenib 0.005 | [5] -0.066 | [6] -0.052 | barasertib -0.177

NCCRP1 (UniProt Q6ZVX7)
inactive: [4] -0.025 | Nexturastat A -0.392 | vemurafenib 0.237 | [6] -0.095

NA (UniProt J3KR12)
inactive: [2] 0.018 | [4] 0.073 | Nexturastat A -0.283 | [6] -0.046 | barasertib 0

NCOA1 (UniProt Q15788)
inactive: [2] 0.02 | Nexturastat A -0.245 | vemurafenib -0.061 | [6] -0.007 | givinostat -0.023 | barasertib 0.044
